According to PMC9646841, “A bead-based GPCR phosphorylation immunoassay for high-throughput ligand profiling and GRK inhibitor screening” (Communications Biology, 2022):

Test system: MOP (GIRK2 channel activation)
Experiment: GIRK channel membrane potential assay (G protein signaling)
Type: cell-based
Conditions: Mus musculus
Description: To analyze Gi signaling, changes in membrane potential produced by activation of G protein-gated inwardly rectifying potassium channel (GIRK) were measured as previously described[50],[51]. HEK293 cells were stably transfected with HA-MOP and GFP-conjugated GIRK2 channel plasmids (OriGene). The cells were then seeded in 96-well plates and allowed to grow at 37 °C in 5% CO2 for 48 h. Hank’s balanced salt solution (HBSS) with 20 mM HEPES solution (1.3 mM CaCl2, 5.4 mM KCl, 0.4 mM K2HPO4, 0.5 mM MgCl2, 0.4 mM MgSO4, 136.9 mM NaCl, 0.3 mM Na2HPO4, 4.2 mM NaHCO3 and 5.5 mM glucose; pH 7.4) was used to wash the cells. A membrane potential dye (FLIPR Membrane Potential kit BLUE, Molecular Devices R8034) was reconstituted according to the manufacturer’s instructions. To each well, 90 μl of the HBSS/HEPES buffer solution and an equal volume of the membrane potential dye were added to a final volume of 180 μl per well. […] Test compounds were prepared in buffer solution containing HBSS and 20 mM HEPES solution (pH 7.4) at tenfold the final concentration to be measured. […] Baseline readings were taken every 1.8 s for 1 min. […] The change in dye fluorescence was recorded for 240 s with SoftMax Pro 5.4 software. Peak fluorescence values were obtained after subtraction of baseline readings for each sample and then used to calculate concentration–response curves using Origin.

## CN1CC[C@]23c4c5ccc(O)c4O[C@H]2[C@@H](O)C=C[C@H]3[C@H]1C5 [Morphine, morphine]
  EC50: 5.01 nM
